# Laboratory results from patent US20050163711A1, “Intra-dermal delivery of biologically active agents” (Becton, Dickinson and Company, Inc., priority 2003, published 2005).
# Assay: Comparison of ID (34G, 1 mm) and Mantoux injections, depot measurement in skin sections
# Assay type: in vivo, Yorkshire swine
# Details: for site of deposition in skin section: swine
compound,measurement,setting,value
Cc1cc(-c2ccc(/N=N/c3ccc4c(S(=O)(=O)O)cc(S(=O)(=O)O)c(N)c4c3O)c(C)c2)ccc1/N=N/c1ccc2c(S(=O)(=O)O)cc(S(=O)(=O)O)c(N)c2c1O [Evans Blue],"average lower depth of depot, 34G 1 mm needle relative to Mantoux injection","swine flank, 25 uL, p=0.03",1.2 mm
same,"depot width, ID 34G 1 mm needle vs Mantoux injection","swine flank, 25 uL, t-Test",significantly (p=0.05) smaller width
same,"overall depot height, ID 34G 1 mm needle vs Mantoux injection","swine flank, 25 uL, t-Test p=0.45",no significant difference
same,site of deposition in skin section,34G 1 mm needle,completely within the dermis
same,site of deposition in skin section,"Mantoux injection, 27G needle",majority of the EB was injected into the SC
